The exact form of at least one protein or probe is not confirmed.
Target: Fur (ferric uptake regulator), His-tagged (UniProt P0A9A9)
Assay: EMSA
Conditions: 200 uM CoCl2; 20 mM BisTris/borate pH 7.0, 40 mM KCl, 1 mM MgCl2, 200 uM CoCl2, 5% glycerol; 0.25 pmol DNA, 0-72 pmol Fur; 37 C, 15 min; 5% native PAGE; recombinant protein; probe letters rebuilt from the primers and the genome

Chains of the proteins cited; added tags and fusions are not shown. Lines headed by an entry give the natural chain unless they say otherwise; changes in a name come on top.
UniProt P0A9A9: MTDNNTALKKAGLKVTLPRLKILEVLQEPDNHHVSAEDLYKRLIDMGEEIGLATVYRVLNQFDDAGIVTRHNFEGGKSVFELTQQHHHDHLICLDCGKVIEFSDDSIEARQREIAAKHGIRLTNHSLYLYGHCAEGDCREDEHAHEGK

Does “CAAGATCGGCTTGAAAGGTTTGCACGACATTCCTCCAGATTGTTTTTATCCCACAGCCACGTACTTCAGGGTAAGTACCTGAAAGTTACGGTCTGCGAACGCTATTCCACTGCTCCTTTATAGGTACAACAGTATAGTCTGATGGATAAGTCTGAAATTTGACGAGATCGATTTTTTTAGTGCGCAAGAGGGCTAAATTATCACTGAAGATGATTAATTTAATTACTAAACCATCAGATCGTGCTTTTTTTAGTCACTGCCCACCGCTGTTTGATTCCTGCGTAAAATTTGTCTCGCCGTCGCGTTGCGAGTAGACTTCGTGCCCTTGTCAAAAACTGGAGATTTAACTATGAGCGAAACGGCATCCTGGC (double strand) [PfrdA]” bind?
Result: binds

Does “CTTCAGTGGATGTTGACATACTCATTGCTTACTCATCAAAAGTAGCGCCAGATTCACTGCTCTTCACGGCAGATGGACGCCACATCGATTCATGGGGAGGAATAAAAAAAACCTTACAATCACTGTAGAAATTCTTTTATACAGCTAATTGATGTGGTTTTTTACTCCTTTCTATAACCTTTTGTCAACTTTAACAAAAGTTTCTTCACATTAGTTTACATAATATCAACACCATTAGCATTTAATGCCCTTTCACCCCAGATCCTTGACGACTCCAGGATAATTAGATGTTGTTGAATCGTGTCCGTTGTGAAGCAATGGAAAAAATACGGGTCTATTTTGACAGGAATTTGTGTCGATTCCTCCCCCCAAAAGAGAG (double strand) [PnuoA]” bind?
Result: binds

Source: article PMC10219339
